Measurements: the supplement of paper PMC10849652
Some of the results follow.

The chains behind the UniProt entries cited, without tags or fusion partners. Where a name states a change or a piece, a line headed by the entry shows the natural chain unless it says otherwise.
UniProt P17542, whole entry, looked up: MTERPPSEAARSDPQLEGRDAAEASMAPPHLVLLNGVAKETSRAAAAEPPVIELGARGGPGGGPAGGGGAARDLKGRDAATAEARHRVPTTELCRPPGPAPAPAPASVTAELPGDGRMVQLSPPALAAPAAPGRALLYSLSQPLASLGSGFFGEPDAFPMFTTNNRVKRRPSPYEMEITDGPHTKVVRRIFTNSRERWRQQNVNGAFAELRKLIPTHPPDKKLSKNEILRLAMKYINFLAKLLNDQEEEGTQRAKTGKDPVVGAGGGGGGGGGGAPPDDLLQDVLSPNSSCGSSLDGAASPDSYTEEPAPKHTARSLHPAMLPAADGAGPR
UniProt A2RTX5: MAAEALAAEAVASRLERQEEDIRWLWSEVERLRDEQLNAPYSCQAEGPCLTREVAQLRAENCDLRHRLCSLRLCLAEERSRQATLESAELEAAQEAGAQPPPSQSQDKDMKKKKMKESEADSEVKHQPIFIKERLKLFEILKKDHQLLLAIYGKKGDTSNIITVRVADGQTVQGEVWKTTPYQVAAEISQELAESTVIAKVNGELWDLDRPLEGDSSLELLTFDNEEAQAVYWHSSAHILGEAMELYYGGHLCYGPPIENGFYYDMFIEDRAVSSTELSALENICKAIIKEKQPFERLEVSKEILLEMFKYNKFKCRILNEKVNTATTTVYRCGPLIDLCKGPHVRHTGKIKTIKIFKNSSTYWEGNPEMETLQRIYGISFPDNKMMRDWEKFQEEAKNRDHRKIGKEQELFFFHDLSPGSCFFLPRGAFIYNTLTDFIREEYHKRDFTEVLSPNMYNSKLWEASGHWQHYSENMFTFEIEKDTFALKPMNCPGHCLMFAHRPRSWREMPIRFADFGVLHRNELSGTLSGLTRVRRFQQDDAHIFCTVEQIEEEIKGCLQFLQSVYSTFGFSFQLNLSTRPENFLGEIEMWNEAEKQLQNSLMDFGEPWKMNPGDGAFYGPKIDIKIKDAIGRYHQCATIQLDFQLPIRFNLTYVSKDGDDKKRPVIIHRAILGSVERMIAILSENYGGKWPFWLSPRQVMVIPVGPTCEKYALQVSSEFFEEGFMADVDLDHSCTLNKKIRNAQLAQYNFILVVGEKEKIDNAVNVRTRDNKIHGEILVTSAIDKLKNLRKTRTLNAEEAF
UniProt Q96QE5: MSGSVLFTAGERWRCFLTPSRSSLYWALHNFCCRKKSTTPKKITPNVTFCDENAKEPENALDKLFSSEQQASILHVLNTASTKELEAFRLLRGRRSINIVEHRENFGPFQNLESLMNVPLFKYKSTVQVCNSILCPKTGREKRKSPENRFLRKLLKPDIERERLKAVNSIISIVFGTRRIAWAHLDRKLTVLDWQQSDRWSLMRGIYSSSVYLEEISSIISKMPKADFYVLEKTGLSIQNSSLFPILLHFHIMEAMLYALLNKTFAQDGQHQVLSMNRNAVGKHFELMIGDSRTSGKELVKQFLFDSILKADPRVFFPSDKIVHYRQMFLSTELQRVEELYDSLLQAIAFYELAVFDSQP
UniProt P37802: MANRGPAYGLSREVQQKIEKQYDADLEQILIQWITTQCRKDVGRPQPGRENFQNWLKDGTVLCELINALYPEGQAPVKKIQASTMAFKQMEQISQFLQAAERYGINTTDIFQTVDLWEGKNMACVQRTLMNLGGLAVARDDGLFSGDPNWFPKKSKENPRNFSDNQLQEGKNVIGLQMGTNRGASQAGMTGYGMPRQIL
UniProt P02786, whole entry, looked up: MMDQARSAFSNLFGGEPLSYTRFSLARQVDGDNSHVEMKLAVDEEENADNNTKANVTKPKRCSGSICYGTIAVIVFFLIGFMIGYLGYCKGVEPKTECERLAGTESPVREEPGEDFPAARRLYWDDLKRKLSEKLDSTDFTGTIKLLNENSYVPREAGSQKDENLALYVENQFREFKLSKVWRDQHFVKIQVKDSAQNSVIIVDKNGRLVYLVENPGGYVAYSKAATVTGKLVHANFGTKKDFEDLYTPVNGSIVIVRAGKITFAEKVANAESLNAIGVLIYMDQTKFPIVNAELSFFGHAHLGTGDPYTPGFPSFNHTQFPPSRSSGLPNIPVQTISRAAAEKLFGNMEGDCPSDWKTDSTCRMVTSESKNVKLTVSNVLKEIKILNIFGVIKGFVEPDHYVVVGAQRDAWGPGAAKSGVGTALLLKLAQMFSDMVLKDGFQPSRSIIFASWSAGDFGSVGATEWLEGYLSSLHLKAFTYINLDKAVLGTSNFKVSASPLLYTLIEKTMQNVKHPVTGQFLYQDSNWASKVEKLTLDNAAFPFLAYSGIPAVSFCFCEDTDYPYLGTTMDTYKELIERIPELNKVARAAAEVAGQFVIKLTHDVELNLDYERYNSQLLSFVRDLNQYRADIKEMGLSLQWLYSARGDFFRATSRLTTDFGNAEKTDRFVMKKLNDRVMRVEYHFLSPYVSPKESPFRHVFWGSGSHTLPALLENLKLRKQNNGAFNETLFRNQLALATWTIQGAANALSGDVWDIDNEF
UniProt O14907: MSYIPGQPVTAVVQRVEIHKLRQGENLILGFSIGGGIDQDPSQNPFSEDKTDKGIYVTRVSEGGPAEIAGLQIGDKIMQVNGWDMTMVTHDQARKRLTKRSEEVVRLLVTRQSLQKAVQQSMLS
UniProt Q96BZ9: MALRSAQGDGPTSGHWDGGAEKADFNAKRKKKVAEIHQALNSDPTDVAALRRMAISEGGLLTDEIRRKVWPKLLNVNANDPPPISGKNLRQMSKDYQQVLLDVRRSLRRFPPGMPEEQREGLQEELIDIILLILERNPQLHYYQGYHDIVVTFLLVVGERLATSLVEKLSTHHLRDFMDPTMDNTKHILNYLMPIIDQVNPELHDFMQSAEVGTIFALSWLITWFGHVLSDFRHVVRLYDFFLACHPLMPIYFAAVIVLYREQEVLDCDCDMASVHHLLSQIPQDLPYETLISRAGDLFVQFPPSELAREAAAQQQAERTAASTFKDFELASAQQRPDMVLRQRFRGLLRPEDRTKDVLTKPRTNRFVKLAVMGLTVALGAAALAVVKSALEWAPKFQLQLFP
UniProt P02787, whole entry, looked up: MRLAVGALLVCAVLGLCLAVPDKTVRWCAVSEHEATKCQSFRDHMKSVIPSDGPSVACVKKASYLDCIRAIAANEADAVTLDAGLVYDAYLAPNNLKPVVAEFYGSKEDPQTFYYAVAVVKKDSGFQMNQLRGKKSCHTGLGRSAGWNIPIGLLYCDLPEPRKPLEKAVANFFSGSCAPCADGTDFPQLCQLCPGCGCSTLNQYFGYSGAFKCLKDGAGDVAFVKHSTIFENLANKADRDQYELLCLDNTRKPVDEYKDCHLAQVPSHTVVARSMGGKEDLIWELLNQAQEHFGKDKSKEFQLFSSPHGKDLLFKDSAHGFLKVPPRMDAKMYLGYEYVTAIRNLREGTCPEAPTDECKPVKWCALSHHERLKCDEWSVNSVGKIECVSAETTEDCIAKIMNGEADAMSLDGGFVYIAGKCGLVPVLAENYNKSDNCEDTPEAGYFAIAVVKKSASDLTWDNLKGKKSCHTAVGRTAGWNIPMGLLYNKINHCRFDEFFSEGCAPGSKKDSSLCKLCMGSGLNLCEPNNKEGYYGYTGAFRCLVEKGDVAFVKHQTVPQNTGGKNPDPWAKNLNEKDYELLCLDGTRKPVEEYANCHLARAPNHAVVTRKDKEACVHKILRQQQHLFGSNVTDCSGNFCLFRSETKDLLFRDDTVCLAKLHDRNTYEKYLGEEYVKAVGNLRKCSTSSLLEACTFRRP
UniProt Q3MII6: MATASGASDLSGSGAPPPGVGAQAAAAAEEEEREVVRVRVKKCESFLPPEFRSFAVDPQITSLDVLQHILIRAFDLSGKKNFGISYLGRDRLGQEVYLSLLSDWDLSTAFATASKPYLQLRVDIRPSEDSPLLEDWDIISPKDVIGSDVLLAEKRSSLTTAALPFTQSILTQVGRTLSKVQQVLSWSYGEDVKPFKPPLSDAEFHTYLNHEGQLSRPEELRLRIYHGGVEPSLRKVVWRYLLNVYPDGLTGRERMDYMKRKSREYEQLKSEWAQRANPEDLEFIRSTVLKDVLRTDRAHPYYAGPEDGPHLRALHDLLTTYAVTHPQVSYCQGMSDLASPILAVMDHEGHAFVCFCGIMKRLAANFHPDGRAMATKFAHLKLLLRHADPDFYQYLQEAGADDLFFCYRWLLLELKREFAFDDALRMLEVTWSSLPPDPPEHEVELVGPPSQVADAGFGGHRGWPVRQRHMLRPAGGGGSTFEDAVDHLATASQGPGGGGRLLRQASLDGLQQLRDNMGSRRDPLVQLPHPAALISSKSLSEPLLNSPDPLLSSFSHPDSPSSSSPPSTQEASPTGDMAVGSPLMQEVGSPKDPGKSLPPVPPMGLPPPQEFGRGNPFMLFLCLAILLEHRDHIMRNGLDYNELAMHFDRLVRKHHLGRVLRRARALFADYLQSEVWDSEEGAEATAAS
UniProt Q9Y4R8, whole entry, looked up: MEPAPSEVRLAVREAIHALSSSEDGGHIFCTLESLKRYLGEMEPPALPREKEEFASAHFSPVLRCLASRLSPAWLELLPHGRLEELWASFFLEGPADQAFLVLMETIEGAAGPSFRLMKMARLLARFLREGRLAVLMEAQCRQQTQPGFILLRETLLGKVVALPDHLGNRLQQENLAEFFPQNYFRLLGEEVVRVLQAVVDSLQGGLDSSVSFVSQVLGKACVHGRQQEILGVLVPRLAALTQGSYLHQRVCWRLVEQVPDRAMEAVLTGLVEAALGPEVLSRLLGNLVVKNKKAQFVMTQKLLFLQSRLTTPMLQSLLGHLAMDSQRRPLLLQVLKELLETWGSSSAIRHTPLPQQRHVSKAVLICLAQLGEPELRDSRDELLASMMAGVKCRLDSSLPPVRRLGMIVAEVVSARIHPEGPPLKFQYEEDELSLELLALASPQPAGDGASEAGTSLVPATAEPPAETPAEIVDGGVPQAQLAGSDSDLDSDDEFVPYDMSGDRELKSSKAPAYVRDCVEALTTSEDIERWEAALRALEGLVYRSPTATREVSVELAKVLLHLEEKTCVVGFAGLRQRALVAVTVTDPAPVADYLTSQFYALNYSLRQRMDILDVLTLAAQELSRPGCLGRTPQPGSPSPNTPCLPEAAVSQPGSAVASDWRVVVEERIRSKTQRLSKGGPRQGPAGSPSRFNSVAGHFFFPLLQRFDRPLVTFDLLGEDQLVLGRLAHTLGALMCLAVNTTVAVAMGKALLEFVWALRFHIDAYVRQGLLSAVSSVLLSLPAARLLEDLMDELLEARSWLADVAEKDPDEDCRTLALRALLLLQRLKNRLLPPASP
UniProt O60347: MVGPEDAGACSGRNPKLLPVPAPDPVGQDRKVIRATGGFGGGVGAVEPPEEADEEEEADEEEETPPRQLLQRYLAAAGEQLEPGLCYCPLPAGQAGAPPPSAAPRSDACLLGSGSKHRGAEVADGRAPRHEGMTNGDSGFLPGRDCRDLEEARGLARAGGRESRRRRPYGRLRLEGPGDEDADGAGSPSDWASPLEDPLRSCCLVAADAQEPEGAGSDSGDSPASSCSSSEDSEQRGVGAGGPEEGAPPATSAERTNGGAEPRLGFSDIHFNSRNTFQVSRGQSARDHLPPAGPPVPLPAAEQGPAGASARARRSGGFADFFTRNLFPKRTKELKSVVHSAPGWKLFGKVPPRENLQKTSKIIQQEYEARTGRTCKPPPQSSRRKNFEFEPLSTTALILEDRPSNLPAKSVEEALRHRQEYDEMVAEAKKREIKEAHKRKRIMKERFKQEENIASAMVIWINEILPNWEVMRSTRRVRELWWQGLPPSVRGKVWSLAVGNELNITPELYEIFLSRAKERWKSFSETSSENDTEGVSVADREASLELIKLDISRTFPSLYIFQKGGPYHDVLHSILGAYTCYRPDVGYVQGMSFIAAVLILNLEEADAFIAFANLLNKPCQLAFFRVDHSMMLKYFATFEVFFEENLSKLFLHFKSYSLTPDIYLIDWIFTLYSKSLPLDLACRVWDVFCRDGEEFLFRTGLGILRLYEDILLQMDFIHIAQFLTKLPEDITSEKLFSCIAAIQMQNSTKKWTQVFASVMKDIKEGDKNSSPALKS
UniProt Q9NUJ3: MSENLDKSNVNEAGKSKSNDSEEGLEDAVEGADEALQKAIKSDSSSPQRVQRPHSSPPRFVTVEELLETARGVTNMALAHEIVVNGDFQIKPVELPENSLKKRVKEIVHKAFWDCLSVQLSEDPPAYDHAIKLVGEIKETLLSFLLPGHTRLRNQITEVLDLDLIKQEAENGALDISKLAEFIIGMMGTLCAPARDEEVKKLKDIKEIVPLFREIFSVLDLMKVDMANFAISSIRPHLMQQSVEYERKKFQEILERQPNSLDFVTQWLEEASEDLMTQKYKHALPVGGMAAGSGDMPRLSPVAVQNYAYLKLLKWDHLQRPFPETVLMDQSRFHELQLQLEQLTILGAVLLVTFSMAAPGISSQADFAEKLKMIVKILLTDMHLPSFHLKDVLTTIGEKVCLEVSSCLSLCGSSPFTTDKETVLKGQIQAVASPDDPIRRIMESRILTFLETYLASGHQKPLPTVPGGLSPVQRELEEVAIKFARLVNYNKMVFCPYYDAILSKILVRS

What was measured:
Experiment in all cases: log2 fold change, soluble protein after heating vs DMSO (PISA); higher = thermal stabilisation; K562 lysate, 10 uM; active = over 0.2 and 3.5 SD of the protein, either way, in both replicates (recomputed)
alvocidib = compound: CN1CC[C@H](c2c(O)cc(O)c3c(=O)cc(-c4ccccc4Cl)oc23)[C@H](O)C1 [alvocidib]
Outline: (§1)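 Dounce homogenisation of K562 pellets in PBS pH 7.4 with 1 mM MgCl2 produced a crude extract, used at 1 mg/mL protein. Exposure to 10 μM compound lasted 30 min, and aliquots were then heated for 3 min across 48°C-58°C, pooled and brought to 0.5% NP-40 at 4°C. The supernatant after 21,000xg for 90 min was quantified by TMTpro 16plex LC-MS/MS with channel sums equalised. Duplicate values are given as log-two fold change in thermal stability relative to solvent controls.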

Tubastatin A = compound: CN1CCc2c(c3ccccc3n2Cc2ccc(C(=O)NO)cc2)C1 [Tubastatin A]
Outline: as §1

[1] = compound: CNC(=O)C1=CC=CC=C1NC2=NC(=NC=C2Cl)NC3=C(C=C(C=C3)N4CCOCC4)OC
Outline: as §1

defactinib = compound: CNC(=O)c1ccc(Nc2ncc(C(F)(F)F)c(NCc3nccnc3N(C)S(C)(=O)=O)n2)cc1 [defactinib]
Outline: as §1

[2] = compound: CNc1nc(-c2ccc3c(N)n[nH]c3c2)cc(N2C[C@@H](C(=O)NC3CCCCC3)CC[C@H]2C)n1
Outline: as §1

encorafenib = compound: COC(=O)N[C@@H](C)CNc1nccc(-c2cn(C(C)C)nc2-c2cc(Cl)cc(NS(C)(=O)=O)c2F)n1 [encorafenib]
Outline: as §1

[3] = compound: COC(=O)[C@H](CCSC)NC(=O)C1=C(C=C(C=C1)NC[C@H](CS)N)C2=CC=CC=C2
Outline: as §1

alisertib = compound: COc1cc(Nc2ncc3c(n2)-c2ccc(Cl)cc2C(c2c(F)cccc2OC)=NC3)ccc1C(=O)O [alisertib]
Outline: as §1

[4] = compound: COc1cc2nc(-c3cc(F)ccc3O)nc(N[C@@H]3CNC[C@H]3C(C)(C)O)c2cc1OC
Outline: as §1

gefitinib = compound: COc1cc2ncnc(Nc3ccc(F)c(Cl)c3)c2cc1OCCCN1CCOCC1 [gefitinib]
Outline: as §1

lapatinib = compound: CS(=O)(=O)CCNCc1ccc(-c2ccc3ncnc(Nc4ccc(OCc5cccc(F)c5)c(Cl)c4)c3c2)o1 [lapatinib]
Outline: as §1

pictilisib = compound: CS(=O)(=O)N1CCN(Cc2cc3nc(-c4cccc5[nH]ncc45)nc(N4CCOCC4)c3s2)CC1 [pictilisib]
Outline: as §1

crizotinib = compound: C[C@@H](Oc1cc(-c2cnn(C3CCNCC3)c2)cnc1N)c1c(Cl)ccc(F)c1Cl [crizotinib]
Outline: as §1

[5] = compound: C[C@H](C1=CC=C(C=C1)C(=O)NC2=C3C=CNC3=NC=C2)N
Outline: as §1

duvelisib = compound: C[C@H](Nc1ncnc2nc[nH]c12)c1cc2cccc(Cl)c2c(=O)n1-c1ccccc1 [duvelisib]
Outline: as §1

gandotinib = compound: Cc1cc(Nc2cc(CN3CCOCC3)c3nc(C)c(Cc4ccc(Cl)cc4F)n3n2)n[nH]1 [gandotinib]
Outline: as §1

tozasertib = compound: Cc1cc(Nc2cc(N3CCN(C)CC3)nc(Sc3ccc(NC(=O)C4CC4)cc3)n2)n[nH]1 [tozasertib]
Outline: as §1

doramapimod = compound: Cc1ccc(-n2nc(C(C)(C)C)cc2NC(=O)Nc2ccc(OCCN3CCOCC3)c3ccccc23)cc1 [doramapimod]
Outline: as §1

bafetinib = compound: Cc1ccc(NC(=O)c2ccc(CN3CC[C@H](N(C)C)C3)c(C(F)(F)F)c2)cc1Nc1nccc(-c2cncnc2)n1 [bafetinib]
Outline: as §1

[6] = compound: Cc1cccc(CC(=O)N2CCc3c2ccc(-c2cn(C)c4ncnc(N)c24)c3F)n1
Outline: as §1

Measured: log2 fold change

TAL1 (UniProt P17542)
inactive: alvocidib -0.013 | Tubastatin A -0.006 | [1] -0.02 | defactinib -0.023 | [2] -0.023 | encorafenib 0.051 | [3] -0.079 | alisertib 0.08 | [4] 0.035 | gefitinib 0.031 | lapatinib -0.084 | pictilisib 0.004 | crizotinib 0.022 | [5] -0.032 | duvelisib -0.019 | gandotinib 0.133 | tozasertib 0.028 | doramapimod 0.028 | bafetinib -0.048 | [6] 0.051

TARSL2 (UniProt A2RTX5)
inactive: alvocidib -0.019 | Tubastatin A 0.012 | [1] 0.026 | defactinib 0.014 | [2] 0.034 | encorafenib -0.009 | [3] 0.078 | alisertib -0.028 | [4] 0.017 | gefitinib -0.029 | lapatinib -0.034 | pictilisib -0.006 | crizotinib -0.027 | [5] -0.044 | duvelisib -0.005 | gandotinib 0.036 | tozasertib 0.039 | doramapimod -0.006 | bafetinib -0.061 | [6] 0.036

TEFM (UniProt Q96QE5)
inactive: alvocidib 0.023 | Tubastatin A 0.015 | [1] 0.037 | defactinib 0.09 | [2] -0.05 | encorafenib -0.118 | [3] 0.08 | alisertib -0.002 | [4] 0.004 | gefitinib -0.052 | lapatinib -0.04 | crizotinib -0.039 | [5] 0.084 | duvelisib -0.016 | gandotinib -0.062 | tozasertib 0.232 | doramapimod -0.011 | [6] -0.04

TCHP (UniProt Q9BT92)
inactive: alvocidib -0.14 | Tubastatin A -0.064 | [1] 0.084 | defactinib -0.086 | [2] -0.01 | encorafenib -0.003 | [3] 0.028 | alisertib -0.174 | gefitinib -0.014 | pictilisib -0.031 | crizotinib 0.059 | [5] -0.101 | duvelisib -0.021 | gandotinib -0.028 | tozasertib 0.02 | doramapimod 0.056 | bafetinib 0.118 | [6] -0.038

TAGLN2 isoform 2 (UniProt P37802)
inactive: alvocidib 0.012 | Tubastatin A 0.027 | [1] 0.006 | defactinib 0.024 | [2] 0.004 | encorafenib -0.015 | [3] -0.112 | alisertib -0.008 | [4] -0.005 | gefitinib -0.032 | lapatinib 0.013 | pictilisib -0.022 | crizotinib 0.009 | [5] 0.058 | duvelisib 0.017 | gandotinib -0.001 | tozasertib 0.027 | doramapimod -0.004 | bafetinib 0.024 | [6] -0.025

TFRC (UniProt P02786)
inactive: alvocidib 0.012 | Tubastatin A 0.022 | [1] 0.009 | defactinib -0.01 | [2] 0.01 | encorafenib -0.001 | [3] -0.017 | alisertib 0.008 | [4] 0.013 | gefitinib 0.017 | lapatinib -0.023 | pictilisib -0.005 | crizotinib 0.026 | [5] -0.015 | duvelisib 0.005 | gandotinib 0.019 | tozasertib -0.006 | doramapimod -0.003 | bafetinib -0.022 | [6] -0.002

TAX1BP3 (UniProt O14907)
inactive: alvocidib 0.059 | Tubastatin A -0.275 | [1] 0.009 | defactinib 0.087 | [2] -0.06 | encorafenib 0.071 | [3] -0.165 | [4] 0.053 | lapatinib -0.002 | pictilisib -0.126 | [5] -0.079 | duvelisib -0.06 | gandotinib -0.086 | tozasertib -0.008 | bafetinib 0.007 | [6] 0.032

TBC1D20 isoform 3 (UniProt Q96BZ9)
inactive: alvocidib -0.011 | Tubastatin A -0.131 | [1] -0.017 | defactinib 0.166 | [2] 0.109 | encorafenib 0.037 | [3] -0.047 | [4] -0.021 | lapatinib -0.019 | pictilisib -0.12 | crizotinib -0.066 | [5] -0.087 | duvelisib 0.021 | gandotinib -0.105 | tozasertib -0.017 | doramapimod -0.095 | bafetinib -0.303 | [6] 0.025

TCF12 isoform 3 (UniProt Q99081)
inactive: alvocidib -0.045 | Tubastatin A -0.129 | [1] 0.009 | defactinib -0.007 | [2] -0.013 | encorafenib 0.039 | [3] -0.043 | alisertib 0.004 | [4] -0.025 | gefitinib 0.028 | lapatinib -0.047 | pictilisib 0.055 | crizotinib 0.034 | [5] -0.038 | duvelisib 0.025 | gandotinib 0.056 | tozasertib 0.023 | doramapimod -0.011 | bafetinib -0.11 | [6] -0.001

TF (UniProt P02787)
inactive: alvocidib 0.024 | Tubastatin A 0.043 | [1] 0.035 | defactinib -0.029 | [2] 0.012 | encorafenib -0.067 | [3] 0.066 | alisertib 0.011 | [4] -0.005 | gefitinib 0.251 | lapatinib -0.013 | pictilisib -0.015 | crizotinib 0.084 | [5] -0.119 | duvelisib 0.033 | gandotinib 0.122 | tozasertib 0.01 | doramapimod -0.007 | bafetinib 0.008 | [6] 0.025

TBC1D25 (UniProt Q3MII6)
inactive: alvocidib 0.036 | Tubastatin A 0.028 | [1] -0.014 | defactinib 0.025 | [2] 0.003 | encorafenib 0.091 | [3] 0.038 | alisertib -0.021 | [4] -0.032 | gefitinib 0.09 | lapatinib -0.009 | crizotinib -0.097 | [5] -0.009 | duvelisib 0.049 | gandotinib -0.168 | tozasertib -0.284 | doramapimod -0.02 | [6] -0.036

TARBP1 (UniProt Q13395)
inactive: alvocidib 0.009 | Tubastatin A -0.118 | [1] -0.066 | defactinib -0.034 | [2] 0.047 | encorafenib 0.073 | [3] -0.236 | alisertib 0.018 | [4] -0.004 | gefitinib 0.011 | lapatinib -0.009 | pictilisib 0.007 | crizotinib -0.122 | [5] 0.017 | duvelisib -0.034 | gandotinib -0.124 | tozasertib 0.098 | doramapimod -0.022 | bafetinib -0.044 | [6] 0.079

TBC1D8B (UniProt Q0IIM8)
inactive: alvocidib -0.134 | Tubastatin A 0.051 | [1] -0.017 | defactinib -0.057 | [2] 0.078 | encorafenib -0.032 | [3] 0.033 | alisertib 0.11 | [4] 0.026 | gefitinib 0.008 | lapatinib 0 | pictilisib -0.072 | crizotinib 0.013 | [5] -0.229 | duvelisib 0.007 | gandotinib 0.176 | tozasertib -0.011 | doramapimod 0.014 | bafetinib 0.03 | [6] 0.097

TAF9B (UniProt Q9HBM6)
inactive: alvocidib 0.053 | Tubastatin A 0.053 | [1] 0.113 | defactinib 0.031 | [2] 0.085 | encorafenib 0.115 | [3] -0.202 | [4] -0.154 | lapatinib -0.281 | pictilisib 0.032 | crizotinib 0.033 | [5] 0.072 | duvelisib -0.002 | gandotinib 0.049 | tozasertib 0.056 | doramapimod 0 | bafetinib 0.341 | [6] -0.113

TELO2 (UniProt Q9Y4R8)
inactive: alvocidib -0.01 | Tubastatin A -0.164 | [1] 0.035 | defactinib -0.008 | [2] -0.036 | encorafenib 0.003 | [3] 0.139 | alisertib 0.008 | [4] -0.009 | gefitinib 0.011 | lapatinib -0.016 | pictilisib -0.01 | crizotinib -0.053 | [5] -0.038 | duvelisib -0.015 | gandotinib -0.087 | tozasertib -0.012 | doramapimod 0.037 | bafetinib -0.054 | [6] 0.056

TBC1D12 (UniProt O60347)
inactive: alvocidib -0.189 | Tubastatin A 0.008 | [1] 0.019 | defactinib 0.016 | [2] 0.076 | encorafenib -0.079 | [3] 0.092 | [4] 0.204 | lapatinib -0.312 | crizotinib 0.001 | [5] 0.058 | duvelisib -0.058 | gandotinib -0.055 | tozasertib -0.053 | doramapimod 0.001 | [6] 0.239

2 neighbouring records from above:
TELO2 (UniProt Q9Y4R8)
inactive: alvocidib -0.01 | Tubastatin A -0.164 | [1] 0.035 | defactinib -0.008 | [2] -0.036 | encorafenib 0.003 | [3] 0.139 | alisertib 0.008 | [4] -0.009 | gefitinib 0.011 | lapatinib -0.016 | pictilisib -0.01 | crizotinib -0.053 | [5] -0.038 | duvelisib -0.015 | gandotinib -0.087 | tozasertib -0.012 | doramapimod 0.037 | bafetinib -0.054 | [6] 0.056

TBC1D12 (UniProt O60347)
inactive: alvocidib -0.189 | Tubastatin A 0.008 | [1] 0.019 | defactinib 0.016 | [2] 0.076 | encorafenib -0.079 | [3] 0.092 | [4] 0.204 | lapatinib -0.312 | crizotinib 0.001 | [5] 0.058 | duvelisib -0.058 | gandotinib -0.055 | tozasertib -0.053 | doramapimod 0.001 | [6] 0.239

Carrying on:

TCP11L1 (UniProt Q9NUJ3)
inactive: alvocidib -0.098 | Tubastatin A -0.006 | [1] 0.029 | defactinib 0.023 | [2] -0.064 | encorafenib 0.006 | [3] -0.064 | alisertib -0.022 | [4] 0.032 | gefitinib -0.001 | lapatinib -0.008 | pictilisib -0.028 | crizotinib -0.022 | [5] -0.204 | duvelisib -0.024 | gandotinib 0.066 | tozasertib -0.069 | doramapimod -0.017 | bafetinib -0.007 | [6] 0.146
